From US10077295B2, “Glycoproteins having lipid mobilizing properties and therapeutic uses thereof” (Aston University, priority 2010, dated 2018)

Key:
male Wistar rats = test: mature male Wistar rats, daily i.v. ZAG for 10 days: body weight, body composition, plasma metabolites; assay type: in vivo, rat
Protocol: Animal—Rats. Mature male Wistar rats (one year old from our own colony) weighing 540±82.5 g were housed individually and treated once daily i.v., with either ZAG in PBS (100 μl) (50 μg per 100 g body weight), or with PBS (100 μl) as a control. Both food and water intake and body weight were measured daily. Animals were given free access to food (Special Diet Services, Essex, UK) and water ad libitum. The animal experiment was carried out under the welfare conditions imposed by the British Home Office. After 10 days treatment the animals were terminated and the body composition determined. Animals were heated to 80-90° C. for 7 days until constant weight was achieved. The water content was then determined from the difference between the wet and dry weight. Lipids were extracted from the dry carcass using a sequence of chloroform:methanol (1:1), ethanol/acetone (1:1) and diethyl ether (120 ml of each) as described by Lundholm et al (14). […] The non-fat carcass mass was calculated as the difference between the initial weight of the carcass and the weight of water and fat.
Serum Metabolite Determinations. Non-esterified fatty acids (NEFA) were determined using a Wako-ASC-ACOD kit (Wako Chemical GmbH, Neuss, Germany). Triglycerides were determined using a Triglyceride kit (Sigma Chemical Co., Poole, United Kingdom) and 3-hydroxybutyrate by a quantitative enzymatic determination kit (Sigma). […]

ob/ob mice [1] = test: ob/ob mice treated with ZAG, 21 day study; assay type: in vivo, mouse
Protocol: FIG. 7A is a graphical diagram showing weight loss of the ob/ob mice during the 21 day study. ZAG was injected at days 1, 4, 5, 8, 13, 16, 18, and 19; PBS was injected at the same time points.
(§1) Animals—Mice. Homozygous obese (ob/ob) mice from the colony maintained at Aston University were used in the present study. The origin and characteristics of Aston ob/ob mice have been previously described. Male mice (20-21 weeks old, weight 90-100 g) were grouped into three per cage in an air conditioned room at 22±2° C. with a 12 h-light:12 h-dark cycle and fed a rat and mouse breeding diet (Special Diet Services, Witham, UK) and tap water ad libitum. They were administered ZAG (35 μg) in PBS (100 μl) b.d. by i.v. administration and body weight and food and water intake were monitored daily. Control mice received PBS alone. Body temperature was measured daily by the use of a rectal thermometer (RS Components, Northants, UK). All animal experiments were carried out in accordance with the U.K. Animals (Scientific Procedures) Act 1986.
After 21 days, the plasma metabolite levels in the ob/ob mice were observed (Table 2), with monitored parameters shown in Table 3. […]

ob/ob mice [2] = test: ob/ob mice administered ZAG i.v. for 5 days (120 h): body weight, temperature, plasma metabolites, tissue weights; assay type: in vivo, mouse
Protocol: as §1, with “All animal experiments were carried out in accordance with the U.K. Animals (Scientific Procedures) Act 1986.” left out
Serum Metabolite Determinations. Non-esterified fatty acids (NEFA) were determined using a Wako-ASC-ACOD kit (Wako Chemical GmbH, Neuss, Germany). Triglycerides were determined using a Triglyceride kit (Sigma Chemical Co., Poole, United Kingdom) and 3-hydroxybutyrate by a quantitative enzymatic determination kit (Sigma). Glucose was measured using a glucose analyser (Beckman, Irvine, Calif.) and glycerol was determined enzymatically using the method of Wieland as described in “Methods of Enzymatic Analysis” (Ed. Bergmeyer, H. U.) Vol. 3, pp1404-1409, published by Academic Press, London (1974).

B1: ZAG: recombinant full length human zinc-α2-glycoprotein (SEQ ID NO: 1) secreted by transfected HEK293F cells; lipid mobilizing factor (protein, listed as Homo sapiens)
chain: QENQDGRYSLTYIYTGLSKHVEDVPAFQALGSLNDLQFFRYNSKDRKSQPMGLWRQVEGMEDWKEDSQLQKAREDMETLKDIVEYYNDSNGSHVLQGRFGCEIENNRSSGAFWKYYYDGKDYIEFNKEIPAWVPFDPAAQITKQKWEAEPVYVQRAKAYLEEECPATLRKYLKYSKNILDRQDPPSVVVTSHQAPGEKKKLKCLAYDFYPGKIDVHWTRAGQVQEPELRGDVLHNGNGTYQSWVVVAVPPQDTAPYSCHVQHSSLAQPLVVPWEAS
Q: What does the source list for B1?
A: food intake (male Wistar rats): 102 ± 32 g; water intake (male Wistar rats): 135 ± 35 mL; Food (ob/ob mice [1]): 145 ± 4 g; Water (ob/ob mice [1]): 259 ± 20 mL; food intake over the course of the experiment (ob/ob mice [2]): 30 ± 2.5 g; water intake over the course of the experiment (ob/ob mice [2]): 135 ± 3.2 mL
